Laboratory results as given in patent publication US20120190615A1, “METHODS AND COMPOSITIONS FOR INDUCING WEIGHT LOSS” (Sanford-Burnham Medical Research Institute, priority 2011, published 2012).
At least one structure is not confirmed: it was looked up by name or label, or the drawing left a doubt.

System: BMP type I receptors
Experiment: Mesenchymal stem cell differentiation in the presence of dorsomorphin (Oil Red O)
Format: cell-based
Details: 2 uM dorsomorphin

c1cc(-c2cnn3cc(-c4ccc(OCCN5CCCCC5)cc4)cnc23)ccn1 [Dorsomorphin, dorsomorphin]
OX- and BMP-7-induced brown fat differentiation: blunted
